Results are given in words; binding and its absence hold for the method and conditions named. In cells and extracts the contact can be indirect. Here binding means that the protein was enriched with, or labelled near, the bait; the list need not be complete.
B1: Hsp47 (SerpinH1) (protein, UniProt P50454 19-418)
chain: AEVKKPAAAAAPGTAEKLSPKAATLAERSAGLAFSLYQAMAKDQAVENILVSPVVVASSLGLVSLGGKATTASQAKAVLSAEQLRDEEVHAGLGELLRSLSNSTARNVTWKLGSRLYGPSSVSFADDFVRSSKQHYNCEHSKINFRDKRSALQSINEWAAQTTDGKLPEVTKDVERTDGALLVNAMFFKPHWDEKFHHKMVDNRGFMVTRSYTVGVMMMHRTGLYNYYDDEKEKLQIVEMPLAHKLSSLIILMPHHVEPLERLEKLLTKEQLKIWMGKMQKKAVAISLPKGVVEVTHDLQKHLAGLGLTEAIDKNKADLSRMSGKKDLYLASVFHATAFELDTDGNPFDQDIYGREELRSPKLFYADHPFIFLVRDTQSGSLLFIGRLVRPKGDKMRDEL
B2: RPN1 (protein, UniProt P04843 24-607)
chain: ASSEAPPLINEDVKRTVDLSSHLAKVTAEVVLAHLGGGSTSRATSFLLALEPELEARLAHLGVQVKGEDEEENNLEVRETKIKGKSGRFFTVKLPVALDPGAKISVIVETVYTHVLHPYPTQITQSEKQFVVFEGNHYFYSPYPTKTQTMRVKLASRNVESYTKLGNPTRSEDLLDYGPFRDVPAYSQDTFKVHYENNSPFLTITSMTRVIEVSHWGNIAVEENVDLKHTGAVLKGPFSRYDYQRQPDSGISSIRSFKTILPAAAQDVYYRDEIGNVSTSHLLILDDSVEMEIRPRFPLFGGWKTHYIVGYNLPSYEYLYNLGDQYALKMRFVDHVFDEQVIDSLTVKIILPEGAKNIEIDSPYEISRAPDELHYTYLDTFGRPVIVAYKKNLVEQHIQDIVVHYTFNKVLMLQEPLLVVAAFYILFFTVIIYVRLDFSITKDPAAEARMKVACITEQVLTLVNKRIGLYRHFDETVNRYKQSRDISTLNSGKKSLETEHKALTSEIALLQSRLKTEGSDLCDRVSEMQKLDAQVKELVLKSAVEAERLVAGKLKKDTYIENEKLISGKRQELVTKIDHILDAL
B3: reticulocalbin 2 (RCN2) (protein, UniProt Q14257 23-317)
chain: GKAEELHYPLGERRSDYDREALLGVQEDVDEYVKLGHEEQQKRLQAIIKKIDLDSDGFLTESELSSWIQMSFKHYAMQEAKQQFVEYDKNSDDTVTWDEYNIQMYDRVIDFDENTALDDAEEESFRKLHLKDKKRFEKANQDSGPGLSLEEFIAFEHPEEVDYMTEFVIQEALEEHDKNGDGFVSLEEFLGDYRWDPTANEDPEWILVEKDRFVNDYDKDNDGRLDPQELLPWVVPNNQGIAQEEALHLIDEMDLNGDKKLSEEEILENPDLFLTSEATDYGRQLHDDYFYHDEL
B4: SLC39A7 (ZIP-7) (protein, UniProt Q92504 1-469)
chain: MARGLGAPHWVAVGLLTWATLGLLVAGLGGHDDLHDDLQEDFHGHSHRHSHEDFHHGHSHAHGHGHTHESIWHGHTHDHDHGHSHEDLHHGHSHGYSHESLYHRGHGHDHEHSHGGYGESGAPGIKQDLDAVTLWAYALGATVLISAAPFFVLFLIPVESNSPRHRSLLQILLSFASGGLLGDAFLHLIPHALEPHSHHTLEQPGHGHSHSGQGPILSVGLWVLSGIVAFLVVEKFVRHVKGGHGHSHGHGHAHSHTRGSHGHGRQERSTKEKQSSEEEEKETRGVQKRRGGSTVPKDGPVRPQNAEEEKRGLDLRVSGYLNLAADLAHNFTDGLAIGASFRGGRGLGILTTMTVLLHEVPHEVGDFAILVQSGCSKKQAMRLQLLTAVGALAGTACALLTEGGAVGSEIAGGAGPGWVLPFTAGGFIYVATVSVLPELLREASPLQSLLEVLGLLGGVIMMVLIAHLE

Molecular target: WT GABAA receptor α1 subunit (bait of WT α1β2γ2 GABAA receptors) (human)
Test: affinity purification with mass spectrometry; SILAC IP–MS/MS: heavy lysate of HEK293T cells stably expressing WT α1β2γ2 or α1(A322D)β2γ2 mixed 1:1 with light empty-vector lysate; 6 mg total protein immunoprecipitated with a mouse monoclonal anti-α1 antibody; lysis buffer 50 mM Tris pH 7.5, 150 mM NaCl, 1% Triton X-100; interactor: SILAC ratio over EV at least 1.30, p < 0.05, FDR no more than 0.10; three biological replicates

binding, binds:
B1, B2, B3, B4

Source: article PMC9493394
